{"source": "PubChem BioAssay AID1053209 (Peter MacCallum Cancer Centre, 2014)", "assay": "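Knock-downs that sensitise mouse osteosarcoma cells to doxorubicin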 (follow-up of hits)", "cell system": "mouse primary osteosarcoma cells", "knock-down reagent": "single siRNA against mouse genes, 25 nM (text also states 40 nM)", "time to read-out": "about 120 h (48 h before drug, then 72 h with drug)", "challenge": "doxorubicin 100 nM (about IC30-40), added 48 h after transfection, for 72 h", "detection": "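Viability measured by ATP luminescence with and without doxorubicin, each replicate scaled to non-targeting siRNA NT1, averaged over two replicates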", "scale": "viability with doxorubicin, vs NT1: higher = more viable cells under doxorubicin; viability without drug, vs NT1: higher = more viable cells without drug", "hit rule": "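Active when doxorubicin viability is at most 0.7 of NT1 and drug-free viability lies between 0.7 and 1.1, class LC dox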", "note": "The deposit covers about 1,580 reagents; this is a random part of them. 207 of them (13%) count as active. 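Rows are single siRNAs; four siRNAs per gene were tested, a gene counting as confirmed only when at least two agree.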 Reagents against one gene are numbered here. Further read-outs or replicates are left out here."}
The first 2 entries, ahead of the listing:
{"gene":"Nup107 (nucleoporin 107)","reagent no.":1,"combined effect class":"low viability with and without drug","viability with doxorubicin, vs NT1":0.43,"viability without drug, vs NT1":0.66,"Call":"inactive"}
{"gene":"Nup107 (nucleoporin 107)","reagent no.":2,"combined effect class":"normal viability with and without drug","viability with doxorubicin, vs NT1":0.76,"viability without drug, vs NT1":0.88,"Call":"inactive"}

The list itself, from the start:
{"gene":"Nup107 (nucleoporin 107)","reagent no.":1,"combined effect class":"low viability with and without drug","viability with doxorubicin, vs NT1":0.43,"viability without drug, vs NT1":0.66,"Call":"inactive"}
{"gene":"Nup107 (nucleoporin 107)","reagent no.":2,"combined effect class":"normal viability with and without drug","viability with doxorubicin, vs NT1":0.76,"viability without drug, vs NT1":0.88,"Call":"inactive"}
{"gene":"Nup107 (nucleoporin 107)","reagent no.":3,"combined effect class":"low viability only with doxorubicin; normal without drug","viability with doxorubicin, vs NT1":0.44,"viability without drug, vs NT1":0.78,"Call":"active"}
{"gene":"Nup107 (nucleoporin 107)","reagent no.":4,"combined effect class":"low viability only with doxorubicin; normal without drug","viability with doxorubicin, vs NT1":0.7,"viability without drug, vs NT1":0.88,"Call":"active"}
{"gene":"Mpp4","reagent no.":1,"combined effect class":"normal viability with and without drug","viability with doxorubicin, vs NT1":0.94,"viability without drug, vs NT1":1.02,"Call":"inactive"}
{"gene":"Mpp4","reagent no.":2,"combined effect class":"low viability only with doxorubicin; normal without drug","viability with doxorubicin, vs NT1":0.67,"viability without drug, vs NT1":0.86,"Call":"active"}
{"gene":"Mpp4","reagent no.":3,"combined effect class":"normal viability with and without drug","viability with doxorubicin, vs NT1":1.07,"viability without drug, vs NT1":1.03,"Call":"inactive"}
{"gene":"Mpp4","reagent no.":4,"combined effect class":"normal viability with and without drug","viability with doxorubicin, vs NT1":1.08,"viability without drug, vs NT1":1.03,"Call":"inactive"}
{"gene":"Hps6 (HPS6, biogenesis of lysosomal organelles complex 2 subunit 3)","reagent no.":1,"combined effect class":"normal viability with and without drug","viability with doxorubicin, vs NT1":0.96,"viability without drug, vs NT1":1.03,"Call":"inactive"}
{"gene":"Hps6 (HPS6, biogenesis of lysosomal organelles complex 2 subunit 3)","reagent no.":2,"combined effect class":"normal viability with and without drug","viability with doxorubicin, vs NT1":1.06,"viability without drug, vs NT1":0.98,"Call":"inactive"}
{"gene":"Hps6 (HPS6, biogenesis of lysosomal organelles complex 2 subunit 3)","reagent no.":3,"combined effect class":"normal viability with and without drug","viability with doxorubicin, vs NT1":0.94,"viability without drug, vs NT1":0.94,"Call":"inactive"}
{"gene":"Hps6 (HPS6, biogenesis of lysosomal organelles complex 2 subunit 3)","reagent no.":4,"combined effect class":"normal viability with and without drug","viability with doxorubicin, vs NT1":1,"viability without drug, vs NT1":1.02,"Call":"inactive"}
{"gene":"Sash3 (SAM and SH3 domain containing 3)","reagent no.":1,"combined effect class":"normal viability with and without drug","viability with doxorubicin, vs NT1":0.74,"viability without drug, vs NT1":0.88,"Call":"inactive"}
{"gene":"Sash3 (SAM and SH3 domain containing 3)","reagent no.":2,"combined effect class":"high viability only without drug","viability with doxorubicin, vs NT1":1.04,"viability without drug, vs NT1":1.1,"Call":"inactive"}
{"gene":"Sash3 (SAM and SH3 domain containing 3)","reagent no.":3,"combined effect class":"normal viability with and without drug","viability with doxorubicin, vs NT1":1.04,"viability without drug, vs NT1":1.02,"Call":"inactive"}
{"gene":"Sash3 (SAM and SH3 domain containing 3)","reagent no.":4,"combined effect class":"normal viability with and without drug","viability with doxorubicin, vs NT1":0.94,"viability without drug, vs NT1":0.92,"Call":"inactive"}
{"gene":"Pnck (pregnancy upregulated non-ubiquitously expressed CaM kinase)","reagent no.":1,"combined effect class":"normal viability with and without drug","viability with doxorubicin, vs NT1":1,"viability without drug, vs NT1":1.09,"Call":"inactive"}
{"gene":"Pnck (pregnancy upregulated non-ubiquitously expressed CaM kinase)","reagent no.":2,"combined effect class":"normal viability with and without drug","viability with doxorubicin, vs NT1":0.94,"viability without drug, vs NT1":1.02,"Call":"inactive"}
{"gene":"Pnck (pregnancy upregulated non-ubiquitously expressed CaM kinase)","reagent no.":3,"combined effect class":"normal viability with and without drug","viability with doxorubicin, vs NT1":1.09,"viability without drug, vs NT1":1.06,"Call":"inactive"}
{"gene":"Pnck (pregnancy upregulated non-ubiquitously expressed CaM kinase)","reagent no.":4,"combined effect class":"normal viability with and without drug","viability with doxorubicin, vs NT1":0.98,"viability without drug, vs NT1":1.02,"Call":"inactive"}
{"gene":"Kctd12 (potassium channel tetramerisation domain containing 12)","reagent no.":1,"combined effect class":"low viability only with doxorubicin; normal without drug","viability with doxorubicin, vs NT1":0.62,"viability without drug, vs NT1":0.74,"Call":"active"}
{"gene":"Kctd12 (potassium channel tetramerisation domain containing 12)","reagent no.":2,"combined effect class":"normal viability with and without drug","viability with doxorubicin, vs NT1":1.03,"viability without drug, vs NT1":1.02,"Call":"inactive"}
{"gene":"Kctd12 (potassium channel tetramerisation domain containing 12)","reagent no.":3,"combined effect class":"normal viability with and without drug","viability with doxorubicin, vs NT1":0.97,"viability without drug, vs NT1":1.04,"Call":"inactive"}
{"gene":"Kctd12 (potassium channel tetramerisation domain containing 12)","reagent no.":4,"combined effect class":"high viability only with doxorubicin","viability with doxorubicin, vs NT1":1.12,"viability without drug, vs NT1":1.06,"Call":"inactive"}
